{"sequences": {"note": "Amino acid sequences for entries named in this document (tags omitted).", "UniProt Q13158": "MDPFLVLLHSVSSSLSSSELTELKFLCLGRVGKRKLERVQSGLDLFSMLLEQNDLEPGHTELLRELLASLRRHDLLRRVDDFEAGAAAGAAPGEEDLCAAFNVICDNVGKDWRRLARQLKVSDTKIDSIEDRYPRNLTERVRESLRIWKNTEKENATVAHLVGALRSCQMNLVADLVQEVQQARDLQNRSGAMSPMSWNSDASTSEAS", "UniProt Q9H1R3": "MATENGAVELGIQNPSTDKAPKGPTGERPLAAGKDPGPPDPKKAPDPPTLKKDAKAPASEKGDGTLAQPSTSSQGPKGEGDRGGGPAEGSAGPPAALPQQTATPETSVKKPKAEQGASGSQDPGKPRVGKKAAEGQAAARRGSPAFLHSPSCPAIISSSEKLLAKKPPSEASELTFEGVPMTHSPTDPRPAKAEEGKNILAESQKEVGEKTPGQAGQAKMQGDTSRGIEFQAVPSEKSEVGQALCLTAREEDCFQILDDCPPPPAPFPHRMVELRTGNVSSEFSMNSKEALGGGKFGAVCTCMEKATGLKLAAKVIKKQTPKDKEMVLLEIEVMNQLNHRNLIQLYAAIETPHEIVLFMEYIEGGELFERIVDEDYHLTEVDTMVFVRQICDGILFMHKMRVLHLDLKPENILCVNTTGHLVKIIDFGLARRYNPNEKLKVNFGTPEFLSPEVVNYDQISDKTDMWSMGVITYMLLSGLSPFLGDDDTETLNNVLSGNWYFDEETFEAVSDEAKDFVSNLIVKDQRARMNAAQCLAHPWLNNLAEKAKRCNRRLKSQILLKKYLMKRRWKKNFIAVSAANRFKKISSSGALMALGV"}, "source": "paper doi:10.1101/2021.03.25.436271", "target": "FADD-TAP (Fas-associated death domain protein with a C-terminal TAP affinity tag) (UniProt Q13158)", "assay": "affinity purification with mass spectrometry", "note": "Results are given in words; binding and its absence hold for the method and conditions named. In cells and extracts the contact can be indirect. These calls come from enrichment with a bait or labelling near it, and not all partners need be listed."}
{"substance": "Myosin Light Chain Kinase 2 (MYLK2) (from UniProt Q9H1R3 1-596) (enzyme)", "values": [{"measurement": "binding", "value": "binds"}]}
